No constants are given. Whether binding was seen depends on the method and setting. Binding seen in cells or lysates may run through a third protein. Here binding means that the protein was enriched with, or labelled near, the bait; the list need not be complete.
B1: gap1 (protein, UniProt P33277 1-766)
chain: MTKRHSGTLSSSVLPQTNRLSLLRNRESTSVLYTIDLDMESDVEDAFFHLDRELHDLKQQISSQSKQNFVLERDVRYLDSKIALLIQNRMAQEEQHEFAKRLNDNYNAVKGSFPDDRKLQLYGALFFLLQSEPAYIASLVRRVKLFNMDALLQIVMFNIYGNQYESREEHLLLSLFQMVLTTEFEATSDVLSLLRANTPVSRMLTTYTRRGPGQAYLRSILYQCINDVAIHPDLQLDIHPLSVYRYLVNTGQLSPSEDDNLLTNEEVSEFPAVKNAIQERSAQLLLLTKRFLDAVLNSIDEIPYGIRWVCKLIRNLTNRLFPSISDSTICSLIGGFFFLRFVNPAIISPQTSMLLDSCPSDNVRKTLATIAKIIQSVANGTSSTKTHLDVSFQPMLKEYEEKVHNLLRKLGNVGDFFEALELDQYIALSKKSLALEMTVNEIYLTHEIILENLDNLYDPDSHVHLILQELGEPCKSVPQEDNCLVTLPLYNRWDSSIPDLKQNLKVTREDILYVDAKTLFIQLLRLLPSGHPATRVPLDLPLIADSVSSLKSMSLMKKGIRAIELLDELSTLRLVDKENRYEPLTSEVEKEFIDLDALYERIRAERDALQDVHRAICDHNEYLQTQLQIYGSYLNNARSQIKPSHSDSKGFSRGVGVVGIKPKNIKSSNTVKLSSQQLKKESVLLNCTIPEFNVSNTYFTFSSPSTDNFVIAVYQRGHSKVLVEVCICLDDVLQRRYASNPVVDLGFLTFEANKLYHLFEQLFLRK
B2: grs1 (protein, UniProt Q10179 1-652)
chain: MTEVSKAAAFDRTQFEELMKKRFFFSPSFQIYGGISGLYDYGPPGSALQSNLVDIWRKHFVIEESMLEVDCSMLTPHEVLKTSGHVDKFADWMCKDPATGEIFRADHLVEEVLEARLKGDKEARGQNSNDQPEESDDKKKRKKKVKEIRATRLDDKTVEEYEFILAQIDNYDGDQLGELMKKYDIRNPATNGELETPRQFNLMFETQIGPSGGLKGYLRPETAQGQFLNFSRLLEFNNGKVPFASAMVGKAFRNEISPRSGLLRVREFLMAEVEHFVDPKNKEHDRFDEVSHMPLRLLPRGVQLEGKTDILEMPIGDAVKKGIVDNTTLGYFMARISLFLEKIGIDMNRVRFRQHMSNEMAHYACDCWDAEIQCSYGWIECVGCADRSAYDLSVHSKATKTPLVVQEALPEPVVVEQFEVEVNRKKFGPRFKRDAKAVEEAMISWPESEKVEKSAQLVAEGKIIVNVNGVEHTVESDLVTIEKRKHTEHIRTYTPNVIEPSFGLGRILYVLMEHAYWTRPEDVNRGVLSFPASIAPIKALIVPLSRNAEFAPFVKKLSAKLRNLGISNKIDDSNANIGRRYARNDELGTPFGLTVDFETLQNETITLRERDSTKQVRGSQDEVIAALVSMVEGKSSFEDALAKFGEFKSTQE
B3: utp22 (protein, UniProt O94676 1-1097)
chain: MNGLKREHESSSSQDGSKTPETEYDSHVDSIEDIHSLASKRKKLNEKKENLEDLTLLKTSAFELKLNELIREISVRGKYFRHANTFVEKIKDLIFKTPVIPETNFWSACKNLEKDKKVIVPLAEPLSAKDTNLRASFVPPKTVTPGIFSCSNKFFLNPDGWSYDLFLEIPESIFTQKDYLNGRYFRKRAFYLTCIAKHLLENLGNEVKLEFVAFNDDIRRPILAILPESKGFAATGKRFTVFLIPTVRQIFPVSKLLPHKNAIRDFMEHEELKPTPFYNNSVLEEQNLLFYRDLVKKYSVNPQFLDACGLGSTWLNMRGFSSSIHSNGFGLLEWYVLMALLMSSTGLPAGNVLNTYLTAAQFFKSMLQFLSSKNLTSTLFKLNADSSNLKIGNGHLPTLIDCNTGFNLLGKMKQSFFEYFQASCRHTLNLLDENANYNFSKIFITHVNVPALEFDVSGCIPLEPKELEDPNFCRKTDLDSPYSLYLEYTWDLLQHALGDRVCQIILYSSICTSCSINESLKTKLPKLISFGLLLNPDALLRLVDIGPSPDDTVGSQKFREFWGEVSELRKFKNGSIAESVYWECSSPDERIRIPQRIIRHILNRHLGNNVGDRVSFRNEKFRVYVHSKISPNTDTYNEYVPVMEAYNEAVKSLINLSDIPLSIAEILPADESLRYSSSSVPFYESSTCAPIDVVFQFESSSKWPDELEGIQRTKIAFLLKIAELLEALDNVERASVGLENTDNPTHNCCFLQVLFSNNFTFRYRLRNDREIFFWKSLERNPSTKLSAQKGLYAYEHMFQFIPRHTLAIQAICQAHRSYSMAVRLAKHWFYSHLLTDHVTDEVIELLVASVYINSSSWRTTSSGETSFCRMLHFLAHWDWRFDPLIINSNGKLPHDVRHQATEKLESIRKQDVAIAHNAYYIITDYDFDGNHIGYYKPSKIIANRITSLARASLSELLKDTPNYKSIFKSSLDIYHVVIDVNINKLPMYRESNLTKYKNLQNMSSERPGFEPITEFVKELHRCFEDTISFFYNKKNPKVVTGVFNPRILANRPYRTNIDYPFKVVDKDTVVLDADVVCEEIRQVGGDLIRSIQLQLKA
B4: hhp2 (protein, UniProt P40236 1-400)
chain: MTVVDIKIGNKYRIGRKIGSGSFGQIYLGLNTVNGEQVAVKLEPLKARHHQLEYEFRVYNILKGNIGIPTIRWFGVTNSYNAMVMDLLGPSLEDLFCYCGRKFTLKTVLLLADQLISRIEYVHSKSFLHRDIKPDNFLMKKHSNVVTMIDFGLAKKYRDFKTHVHIPYRDNKNLTGTARYASINTHIGIEQSRRDDLESLGYVLLYFCRGSLPWQGLQADTKEQKYQRIRDTKIGTPLEVLCKGLPEEFITYMCYTRQLSFTEKPNYAYLRKLFRDLLIRKGYQYDYVFDWMILKYQKRAAAAAAASATAPPQVTSPMVSQTQPVNPITPNYSSIPLPAERNPKTPQSFSTNIVQCASPSPLPLSFRSPVPNKDYEYIPSSLQPQYSAQLRRVLDEEPAP
B5: nop2 (protein, UniProt O94268 1-608)
chain: MGRKQKSKQGIPPTLEENHNSSHKVTENAKKRKHSKEKPQNSRKRQLAEEKKSLFENSDSENEKDLIDADEFEEAETLSDLEHDEEPQTFADEFIDDEAKECEGEEEDSVFDSDEEHEVKPMFSDDSGDEEDLELANMEAMSRKLDEEAELEEKEAEEELHTNIHPEAPTVLPPIDGFTDSQPISTLPQDLSQIQLRIQEIVRVLNDFKNLCEPGRNRSEYVDQLLNDICAYYGYSRFLAEKLFELFSVSEAVEFFEANEMPRPVTIRTNTLKTQRRELAQALINRGVNLEPIGKWSKVGLQVFESQVPIGATPEYLAGHYILQAASSFLPVMALAPQPNERILDMSSAPGGKVTYVAALQKNTGIIFANDSNKARTKALSANIHRLGVRNAIVCNYDGRKFPNEVIGGFDRVLLDAPCSGTGVIYKDQSVKTNKSERDFDTLSHLQRQLLLSAIDSVNADSKTGGFIVYSTCSITVDEDEAVIQYALKKRPNVKLVSTGLEFGREGFTRFREKRFHPSLKLTRRYYPHVHNIDGFFVAKLKKISDKIPTVNVADDMKDGTNNDVEIEKNSTEIDNITFNDEADKEIIEQNRRKWLKSKGYKVAKKKD
B6: dbp3 (protein, UniProt Q10202 1-529)
chain: MAKRSVEELKRSADEEASVKRKEKKSKHEHKKHKKDKPSADKDRISKKDKKKSKKGKSKTKEESIEINAEEGAKIAQPAIGSANASNHNDEEAYDRYIKKHNISFADPKSSENLLPILQFDELDVSAKLREGLKNYKEPTPIQAATWPYLLAGRDVVGIAETGSGKTVAFGIPALQYLNGLSDNKSVPRVLVVSPTRELAIQTYENLNSLIQGTNLKAVVVYGGAPKSEQARAAKNASVIIGTPGRLLDLINDGSIDCSQVGYLVLDEADRMLDTGFEQDIRNIISHTPDPTRNGSRQTVFFSATWPESVRALAATFLKDPVKITIGSDELAASQNITQIVEILDDPRSKERMLDNLLRKHLSSGGKDDKILIFVLYKKEAARVEGTLARKYNVVGIHGDMSQGARLQALNDFKSGKCPVLVATDVAARGLDIPKVQLVINVTFPLTIEDYVHRIGRTGRANTKGTAITFFTPQDKSHAGELVNVLRQAKQDIPEGLFKFGTAVKPKLNAYGSRVVDVPVKAATKIVFD
B7: pus1 (protein, UniProt O94396 1-534)
chain: MGRGGKRTWYNGDRREAKRNRPNSIYNGEGRPENLVVGEKKPKRKVACLVGYCGSGYHGMQLNPPSKTIEGDLFDAFVKAGAVSSYNADDPKKVALARAARTDKGVHAAGNVISLKLIMEDEKLIEKVNEHLPPSIRLWDVIRTINSFNPRTYCESRIYEYMVPTYAFVPPKPSSILGNCIMKNSPMPAEPINKENINQLSRSLFYEEGKEFWDDYDIAAKEILSLYEQDPEGFVNPYSKRGAAALANSENNKGSEAGVSAKTNPDMDSDSSAIVNEFLKPDSVEDESAGSKIDPSYRLERALKHIEVLKLKNYRISADRLSVIRETLNQYVGVHNFHNFTVGQAFHQKNSNRVIRSFTASDPFMIGDTEWISCKVHGQSFMLHQIRKMIALAILVVRTGCPVERIQDAFKKTKINIPKGPGFGLLLESPFFKGYNEHKAPENNRDPIDFTKYEQKITAFKHAHIYDKIFLEEARKQVFHCFLSFIDSYNEEDFSYLSDIGITEKTQEVSSKLPDVLSSDEEEDSAENKDDLEG
B8: mis3 (protein, UniProt O74777 1-327)
chain: MTEVESSTENNVIVNKNKRYRRDKPWDTDDIDHWKIEPFTKDDSKESFLEESSFATLFPKYREKYLREVWPHVTRALDKFGITCVLDLVEGSMTVKTTRKTFDPYSILDARDLIKLLARSVPFPQAVKIMQDGVACDIIKIGNILRNKERFVKRRQRLIGTNGQTLKALELLTQCYILVQGTTVAVMGGYKGLKEVRRIVEDCMHNIHPIYHIKELMIKRELAKDPTLANESWDRFLPQFKKRNVARRKPAKIRETKEYTPFPPAQPPSKLDLEIESGEYFLKKEEKERKKRAEKKEQQKEKKKEKEKERMKAFIPPEESSKKRKRD
B9: brx1 (protein, UniProt Q9HGL6 1-295)
chain: MSTVYKLKTSERAPKNEDEDEEYVPVQNGQGNKHSAGFVPIKQKVLVLSSRGVTYRQRHLLNDLVSMMPHSKKDSKLDSKDRLYQLNELAELYNCNNIFFFESRRREDLYLHIARAPNGPTVKFHVENLHTMDELNMTGNALKGSRPILSFDKTFDTAPHLKVVKELLQQTFGIPKGARRSKPFIDRVCTLTIADGKIWFRNYEIRENEDKSKDPVTLIEIGPRFVMTIINILEGSFGGPVIYKNDTFVSSTMVRAAIRNQAAQRYVNRQESKLERQVRAQQNVIPEDPLDNVFA

The chains behind the UniProt entries cited, without tags or fusion partners.
UniProt P04150: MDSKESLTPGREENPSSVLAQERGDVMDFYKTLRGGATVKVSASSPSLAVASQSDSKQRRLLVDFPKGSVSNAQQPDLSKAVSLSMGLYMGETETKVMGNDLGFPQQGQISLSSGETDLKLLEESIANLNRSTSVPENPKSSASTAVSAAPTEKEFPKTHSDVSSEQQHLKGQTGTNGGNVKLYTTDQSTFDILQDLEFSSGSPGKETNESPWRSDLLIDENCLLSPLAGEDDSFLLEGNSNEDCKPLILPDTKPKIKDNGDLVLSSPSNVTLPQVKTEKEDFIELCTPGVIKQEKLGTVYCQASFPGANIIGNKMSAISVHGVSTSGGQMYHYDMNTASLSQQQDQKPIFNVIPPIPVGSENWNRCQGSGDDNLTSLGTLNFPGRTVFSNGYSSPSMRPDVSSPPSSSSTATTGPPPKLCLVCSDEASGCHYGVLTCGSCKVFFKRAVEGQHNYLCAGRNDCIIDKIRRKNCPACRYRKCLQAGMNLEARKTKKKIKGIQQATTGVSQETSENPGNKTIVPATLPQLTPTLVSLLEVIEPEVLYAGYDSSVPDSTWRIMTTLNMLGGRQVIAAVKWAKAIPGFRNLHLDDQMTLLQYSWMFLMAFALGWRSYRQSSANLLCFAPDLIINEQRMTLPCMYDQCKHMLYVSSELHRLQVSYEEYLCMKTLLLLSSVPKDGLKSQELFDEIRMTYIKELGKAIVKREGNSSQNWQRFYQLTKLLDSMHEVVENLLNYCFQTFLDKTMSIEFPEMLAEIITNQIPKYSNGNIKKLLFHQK

Molecular target: human glucocorticoid receptor alpha (GRα), expressed in S. pombe (human) (UniProt P04150)
Experiment: affinity purification with mass spectrometry; anti-GR antibody on epoxy-activated magnetic beads; lysates of S. pombe expressing hGRα (empty vector as control) grown at 30 °C or 39 °C (heat shock 30 min); lysis buffer 250 mM NaCl, 20 mM Tris pH 7.5, 1% Triton X-100, 100 mM potassium acetate; 4 °C, 1 hour, 6 washes; SDS-PAGE and LC-MS/MS

binding	Binder
binds	B1
binds	B2
binds	B3
binds	B4
binds	B5
binds	B6
binds	B7
binds	B8
binds	B9
